Experimental data reported in patent publication US20240391873 (published 2024).

Test: general procedure: Fmoc solid-phase peptide synthesis; Tentagel based Rink amide resin; TBTU/DIEA
Conditions: for crude HPLC purity: HPLC (area %)

## O-{[(3S)-3-Amino-4-({(2R)-1-amino-3-[(2,5-dioxo-1-{3-oxo-3-[(2-{ω-methoxy-poly-oxyethylen[40 kDa]}ethyl)amino]propyl}pyrrolidin-3-yl)sulfanyl]-1-oxopropan-2-yl}amino)-4-oxobutyl]carbamoyl}-L-tyrosyl-adrenomedullin (2-52)(“PEG-ADM”)
Conjugation step
  conjugation yield: ˜68%
  crude HPLC purity: 81.6 area %
Purification step
  step yield: 97%

## O-{[(3S)-3-Amino-4-{[(2R)-1-amino-1-oxo-3-sulfanylpropan-2-yl]amino}-4-oxobutyl]-carbamoyl}-L-tyrosyl-adrenomedullin (2-52)
Late stage modification step
  crude HPLC purity: 85.2 area %
Late stage modification step, without correction for assay or purity
  step yield: 100%
